{"source": "PubChem BioAssay AID1347076", "about": "(National Center for Advancing Translational Sciences (NCATS), 2019)", "note": "Screen size: about 400,000 compounds; about 13,000 (3.2%) were called active. The shares of active, inactive and inconclusive entries below differ from those in the screen. Calls come from the whole dose curve; as a rule, active = well fitted cell-killing curve with a large enough effect; inconclusive = small, poorly fitted or top-dose-only effect, or effect the other way; inactive = flat fitted curve, though single readings scatter. Potencies of inconclusive entries are doubtful fits and often do not repeat. % is set by controls: 0 for no effect and ±100 for the full control effect; potency is the fitted concentration of half-maximal effect.", "data": [{"experiment": "qHTS assay for MDR1-selective chemotherapeutics: Primary screen using the drug-selected MDR subline cells KB-V1; note: nearly all actives have a fitted effect of over 60% in size", "settings": "KB-V1 MDR cells viability, CellTiter-Glo, 72 h; activity change, negative = cytotoxicity: at 46.1 µM (top of the series)", "in_short": "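Following 72 h at 37 degrees C with compound, KB-V1 cell viability was read by CellTiter-Glo luminescence, medium being phenol-red-free DMEM plus 10% FBS; concentration-response parameters came from normalized, curve-fitted qHTS data.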", "values": [{"smiles": "Cc1cc(C)n2c(Nc3ccc4c(c3)OCCO4)c(C(C)C)nc2n1", "Potency": "inconclusive: 20.6 µM [cytotoxic, partial curve, poor fit]"}, {"smiles": "Cc1ccc(NC(=O)COc2ccc(CCO)cc2-n2nc3ccccc3n2)cc1C", "Potency": "inconclusive: 18.4 µM [cytotoxic, partial curve]"}, {"smiles": "CN(C)CCOC(=O)C12CC3CC(CC(C3)C1)C2", "activity change, negative = cytotoxicity": "inactive: 11.5%"}, {"smiles": "O=C(NCCCN1CCCC1)c1ccc2c(c1)N(Cc1ccccc1)CCS2", "Potency": "inconclusive: 14.6 µM [cytotoxic, partial curve]"}, {"smiles": "CCOC(=O)N1CCN(C(=O)CSc2ccc(-c3ccc(OC)cc3)nn2)CC1", "Potency": "inconclusive: 9.2 µM [cytotoxic, partial curve, poor fit]"}, {"smiles": "Cc1ccc(NC(=O)CN2C(=O)C(=O)N(C3CCCC3)C2=O)cc1Cl", "Potency": "inconclusive: 29.1 µM [rising, single point]"}, {"smiles": "O=C1NC[C@H](c2ccccc2)OC(=O)[C@H](Cc2ccc(F)cc2)C/C=C\\C[C@H]1CC(=O)N(CCO)Cc1ccccc1", "Potency": "inconclusive: 29.1 µM [cytotoxic, single point]"}, {"smiles": "CC(C)c1ccc(N2C(=O)/C(=C/N(C)C)SC2=S)cc1", "Potency": "inconclusive: 18.4 µM [cytotoxic, single point]"}, {"smiles": "CC(=O)c1c(C)n(-c2cccc(C)c2)c2ccc(OC(=O)COc3ccccc3)cc12", "Potency": "inconclusive: 23.1 µM [cytotoxic, single point]"}, {"smiles": "Cc1cc(C(=O)CC#N)c(C)n1-c1ccc(OC(F)F)cc1", "Potency": "inconclusive: 20.6 µM [cytotoxic, single point]"}, {"smiles": "CCc1noc(C)c1C(=O)OCC(=O)Nc1nc(-c2ccc(F)c(F)c2)cs1", "Potency": "active: 2.91 µM"}, {"smiles": "O=C1CNC(=O)/C(=C\\c2ccccc2)N1", "Potency": "inconclusive: 18.4 µM [rising, single point]"}, {"smiles": "CCC(C)N(C(=O)COC(=O)CSc1ccc(C)c(C)c1)C1CCS(=O)(=O)C1", "note": "(stereo not drawn)", "Potency": "inconclusive: 2.91 µM [rising, full curve, poor fit]"}, {"smiles": "COc1cccc(/C=C/C(=O)OCC(=O)c2ccc(C)c(C)c2)c1OC", "activity change, negative = cytotoxicity": "inactive: 11.3%"}, {"smiles": "COc1ccc(N2CCN(S(=O)(=O)CCNC(=O)/C=C/c3ccccc3)CC2)cc1", "Potency": "inconclusive: 10.3 µM [cytotoxic, partial curve, poor fit]"}, {"smiles": "Cc1oc(-c2ccccc2Cl)nc1CN1CCCC1c1ccc(F)cc1", "note": "(stereo not drawn)", "Potency": "inconclusive: 29.1 µM [cytotoxic, single point]"}, {"smiles": "COc1ccccc1-c1cc(NC=O)c2ncc(-c3cccc(C(=O)N(C)C)c3)n2c1", "Potency": "inconclusive: 20.6 µM [cytotoxic, single point]"}, {"smiles": "COc1ccc2cc(C(=O)N3CCCC(Nc4ccc(F)cc4)C3)n(C)c2c1", "note": "(stereo not drawn)", "Potency": "inconclusive: 20.6 µM [cytotoxic, partial curve, poor fit]"}, {"smiles": "COc1ccc(/C=C/C(=O)c2cc(Cl)ccc2O)c(OC)c1", "Potency": "inconclusive: 29.1 µM [cytotoxic, single point]"}, {"smiles": "O=C(Nc1ccc(Br)cc1)c1ccc(Br)c(S(=O)(=O)NCc2ccccc2)c1", "Potency": "active: 13 µM"}, {"smiles": "CCCCCCC(=O)N1CCCC(c2nc(-c3cccc(OC)c3)no2)C1", "note": "(stereo not drawn)", "Potency": "inconclusive: 2.59 µM [cytotoxic, partial curve]"}, {"smiles": "COc1ccc(Br)cc1/C=C\\C(=O)NCc1cccnc1", "Potency": "inconclusive: 18.4 µM [cytotoxic, single point]"}, {"smiles": "O=c1cnn(Cc2ccc(Cl)c(Cl)c2)c2ccccc12", "Potency": "inconclusive: 29.1 µM [cytotoxic, single point]"}, {"smiles": "Cc1cc(O)cc2c1C1CCC3(C)C(=O)CCC3C1C=C2", "note": "(stereo not drawn)", "Potency": "inconclusive: 29.1 µM [cytotoxic, single point]"}, {"smiles": "O=C(Cc1ccccc1C(=O)O)Nc1cccc2ccccc12", "activity change, negative = cytotoxicity": "inactive: -4.5%"}, {"smiles": "Cc1cc(C)nc(-n2nc(C)cc2NC(=O)CN2CCC(C)CC2)n1", "Potency": "inconclusive: 5.17 µM [cytotoxic, partial curve, poor fit]"}, {"smiles": "CCc1ccc2[nH]c(=O)c(C3C(C#N)=C(N)Oc4c3ccc3cccnc43)cc2c1", "note": "(stereo not drawn)", "Potency": "active: 2.31 µM"}, {"smiles": "Cc1cc(C)nc(-n2nc(C)cc2NC(=O)CNC(C)c2ccccc2)n1", "note": "(stereo not drawn)", "Potency": "inconclusive: 18.4 µM [cytotoxic, partial curve, poor fit]"}, {"smiles": "CCC1C(=O)N=C(SCC(=O)Nc2ccccc2)NC1=O", "note": "(stereo not drawn)", "Potency": "inconclusive: 14.6 µM [rising, single point]"}, {"smiles": "COc1ccc(CNC(=O)COC(=O)c2ccc(S(=O)(=O)NCc3ccco3)cc2)cc1", "Potency": "inconclusive: 29.1 µM [rising, single point]"}, {"smiles": "O=C(Nc1ccn(Cc2c(F)c(F)cc(F)c2F)n1)c1cccc(Cn2cc([N+](=O)[O-])cn2)c1", "activity change, negative = cytotoxicity": "inactive: 0%"}, {"smiles": "COc1ccc2c(c1)c1c(c(=O)n(-c3cccc(Cl)c3)c(=O)n1C)n2C", "Potency": "inconclusive: 29.1 µM [rising, single point]"}, {"smiles": "COc1ccc(CC2(CO)CCN(S(=O)(=O)c3cccc4cccnc34)CC2)cc1", "activity change, negative = cytotoxicity": "inactive: -4.09%"}, {"smiles": "O=C(C1CC1)N1N=C(c2ccc(Cl)cc2)CC1(O)C(F)(F)F", "note": "(stereo not drawn)", "activity change, negative = cytotoxicity": "inactive: -3.75%"}, {"smiles": "COc1ccc(-c2c(C)c3ccc(O)c(CN4CCN(C)CC4)c3oc2=O)cc1OC", "activity change, negative = cytotoxicity": "inactive: 1.72%"}, {"smiles": "Cc1ccc(C(=O)c2cc([N+](=O)[O-])ccc2N2CCOCC2)cc1", "Potency": "active: 0.82 µM"}, {"smiles": "Fc1ccc(C(c2nnnn2C2CCCC2)N(Cc2ccco2)CC2CCCO2)cc1", "note": "(stereo not drawn)", "Potency": "inconclusive: 13 µM [cytotoxic, partial curve]"}, {"smiles": "Cc1ccc(S(=O)(=O)N2CCC[C@H]2C(=O)Nc2ccccc2Cl)cc1", "Potency": "inconclusive: 29.1 µM [cytotoxic, single point]"}, {"smiles": "O=C(Nc1ncccc1O)c1cccc(S(=O)(=O)N2CCN(c3ccc(F)cc3)CC2)c1", "Potency": "inconclusive: 7.31 µM [cytotoxic, partial curve]"}, {"smiles": "Cc1cccc(OCC(=O)OC(C)CN2CCCCC2)c1", "note": "(stereo not drawn)", "activity change, negative = cytotoxicity": "inactive: -3.28%"}, {"smiles": "O=C(O)/C=C\\C(=O)Nc1ccccc1C#Cc1ccccc1", "activity change, negative = cytotoxicity": "inactive: -4.17%"}, {"smiles": "Cc1ccc(C(=O)NCCNS(=O)(=O)c2ccccc2[N+](=O)[O-])cc1", "Potency": "inconclusive: 18.4 µM [rising, single point]"}, {"smiles": "Cc1nn(-c2ccccc2)c(C)c1NC(=O)COc1ccc(Cl)cc1Cl", "Potency": "active: 2.31 µM"}, {"smiles": "Cc1ccc(S(=O)(=O)NC(=NC(C)C)c2ccccc2)cc1", "Potency": "inconclusive: 29.1 µM [rising, single point]"}, {"smiles": "CCOc1ccc(C2(C)NC(=O)N(CCN(C)C)C2=O)cc1", "note": "(stereo not drawn)", "Potency": "inconclusive: 29.1 µM [rising, single point]"}, {"smiles": "CCC(=O)Nc1cccc(NC(=O)c2ccc(Br)cc2)c1", "Potency": "inconclusive: 23.1 µM [cytotoxic, single point]"}, {"smiles": "O=C(NNC(=O)c1ccccc1-c1ccccc1C(=O)O)c1ccccc1", "activity change, negative = cytotoxicity": "inactive: -16.5%"}, {"smiles": "CN(Cc1ccccc1)C(=O)CCNS(=O)(=O)c1ccc2c(c1)oc(=O)n2C", "Potency": "inconclusive: 18.4 µM [cytotoxic, single point]"}, {"smiles": "O=C(Cn1nnc(-c2ccccc2NC(=O)c2ccco2)n1)Nc1ccccc1", "activity change, negative = cytotoxicity": "inactive: 0.0852%"}, {"smiles": "CCOc1ccc(NC(=O)CN(C)CC(=O)Nc2ccccc2SC)cc1OCC", "Potency": "active: 3.66 µM"}, {"smiles": "CCOc1ccc2c(c1)C(C)=CC(C)(C)N2C(=O)Nc1ccccc1F", "activity change, negative = cytotoxicity": "inactive: 6.02%"}, {"smiles": "COc1ccc(NC(=O)NC(C)C2CC3CCC2C3)cc1", "note": "(stereo not drawn)", "activity change, negative = cytotoxicity": "inactive: -22.6%"}, {"smiles": "Cc1nnc(C)c2c(C)n(C(c3ccccc3)c3ccccc3)c(C)c12", "Potency": "inconclusive: 8.2 µM [cytotoxic, partial curve]"}, {"smiles": "O=[N+]([O-])c1ccccc1/C=N\\Nc1nccs1", "Potency": "inconclusive: 25.9 µM [rising, partial curve, poor fit]"}, {"smiles": "O=S1(=O)CCO[C@H]2CCCC[C@@H]2N1Cc1ccc(Cl)cc1", "Potency": "inconclusive: 20.6 µM [cytotoxic, single point]"}, {"smiles": "COc1ccc(CN(C(C)=O)c2cc(C)c([N+](=O)[O-])cc2OC)cc1OC", "Potency": "inconclusive: 14.6 µM [cytotoxic, partial curve]"}, {"smiles": "O=C(/C=C/c1ccccc1)NCCC1=CCCCC1", "Potency": "inconclusive: 23.1 µM [cytotoxic, single point]"}, {"smiles": "CCOC(=O)[C@]12CCCC=C1N(Cc1cccc3ccccc13)C(=O)[C@H](CC(=O)NCCCOC)C2", "Potency": "inconclusive: 5.17 µM [cytotoxic, partial curve]"}, {"smiles": "O=C(Nc1cc(-c2nc3ccccc3o2)ccc1Cl)c1cccc2c(Cl)cccc12", "Potency": "inconclusive: 13 µM [rising, partial curve]"}, {"smiles": "CCCn1c(CCC(=O)Nc2ccccc2Cc2ccccc2)nc2cc(S(=O)(=O)N3CCOCC3)ccc21", "Potency": "inconclusive: 18.4 µM [cytotoxic, partial curve]"}, {"smiles": "O=C(NCC1CCN(Cc2cccc(Cl)c2)CC1)Nc1ccc(Cl)cc1", "Potency": "inconclusive: 23.1 µM [cytotoxic, single point]"}, {"smiles": "CC1(c2ccc3c(c2)OCCCO3)NC(=O)N(CC(=O)NCCc2ccc(F)cc2)C1=O", "note": "(stereo not drawn)", "activity change, negative = cytotoxicity": "inactive: -1.62%"}, {"smiles": "O=C(c1c(Cl)nc2sccn12)N1CCN(c2cccc(Cl)c2)CC1", "Potency": "inconclusive: 1.3 µM [cytotoxic, full curve, poor fit]"}, {"smiles": "CCOC(=O)c1c(-c2ccccc2)oc2ccc(NS(=O)(=O)c3ccccc3)cc12", "Potency": "inconclusive: 29.1 µM [cytotoxic, single point]"}, {"smiles": "COc1ccc(S(=O)(=O)NCc2cccn2Cc2cccc(C)c2)cc1OC", "Potency": "inconclusive: 20.6 µM [cytotoxic, single point]"}, {"smiles": "CN(C)c1ccc(/C=C/C(=O)c2ccc(O)cc2)cc1", "activity change, negative = cytotoxicity": "inactive: -21.2%"}, {"smiles": "COc1ccc(CNC(=O)c2cnc(N3CCCC3)nc2C)cc1", "activity change, negative = cytotoxicity": "inactive: 8.74%"}, {"smiles": "COc1ccccc1N1CCN(C(=O)C2c3ccccc3Oc3ccccc32)CC1", "Potency": "active: 2.59 µM"}]}]}
